According to PubChem BioAssay AID2685 (National Center for Advancing Translational Sciences (NCATS), 2010):
The list shows a part of the results. These are further read-outs of the screen, such as a control signal, another cell line or another target. No call is given for them. Most of these compounds were active or inconclusive in the main read-out, so they are no random draw. Words in brackets tell the shape of the fitted curve; partial curves, single points and poor fits give uncertain potencies.

Assay: qHTS Assay for Lipid Storage Modulators in Drosophila S3 Cells;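 as to cell number change: cells counted by Cell Tracker Red CMTPX staining in the red channel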
Details: BODIPY lipid droplet fluorescence, 18-24 h; for cell number change: measured here: cell count max response, cells fed with added oleic acid
Method in brief: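 Laser-scanning cytometry quantifies lipid droplet accumulation (500–530 nm total intensity; droplet/cell object ratio) in oleic acid-fed (400 uM added) Drosophila S3 cells treated with a concentration series. 20 uM Triacsin C defined 100% inhibition.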

[1] = measured here: lipid fluorescence (Fed channel) AC50, cells fed with added oleic acid
[2] = measured here: cell number channel AC50, cells fed with added oleic acid

SMILES | cell number change | AC50 [1] | AC50 [2]
COc1ccccc1NC(=O)CSC1=NC(=O)C(Cc2ccccc2)C(=O)N1 (stereo not given) | -2.63% | 5.62 µM [rising, single point] | –
COc1ccc(C2=NS(=O)(=O)N(C)C(C(=O)NCc3ccc(F)cc3)=C2)cc1OC | 10.2% | 0.0651 µM [rising, full curve, poor fit] | 0.291 µM [rising, full curve, poor fit]
COc1ccc(CN(C)C(=O)CNC(=O)CNC(=O)c2ccc(Cl)cc2Cl)cc1F | -16.7% | 0.58 µM [rising, single point] | –
CCOc1ccccc1C(=O)N/N=C/c1coc2ccc(C)cc2c1=O | – | 16.4 µM [falling, partial curve] | –
Cc1ccc2occ(/C=N/NC(=O)c3ccncc3)c(=O)c2c1 | 3.66% | – | –
O=C(CSc1nnc(-c2cccc(S(=O)(=O)N3CCCCC3)c2)o1)c1ccc[nH]1 | -31.6% | 0.58 µM [rising, single point] | 1.16 µM [falling, full curve, poor fit]
Cc1ccc(C2C(C(=O)c3cccs3)=C(O)C(=O)N2c2cccc(C)n2)cc1 (stereo not given) | 15.9% | 1.46 µM [rising, partial curve, poor fit] | –
Cc1cc(N2CCOCC2)ccc1/C=C1\NC(=O)N(CC(=O)Nc2ccc(F)cc2)C1=O | -13.8% | 18.4 µM [falling, single point] | –
O=C(OCc1nnc(-c2ccccc2)o1)c1cc(Cl)ccc1[N+](=O)[O-] | – | 29.1 µM [rising, single point] | –
COc1ccc(C(=O)Cc2cc3cccc(OC)c3oc2=O)cc1 | 25.9% | 29.1 µM [rising, single point] | –
Cc1ccc(/C=C/C(=O)OC(C)C(=O)Nc2ncc(Cl)cc2Cl)o1 (stereo not given) | 45.5% | 20.6 µM [rising, single point] | 29.1 µM [rising, single point]
CCOC(=O)C1C(=O)NC(N2CCc3ccccc32)=NC1c1ccccc1 (stereo not given) | -26.9% | – | –
Cc1ccc(SCC(=O)OCC(=O)NCc2cccs2)cc1 | -6.81% | 6.51 µM [rising, single point] | –
O=C(Nc1ccc(Cl)c(S(=O)(=O)N2CCOCC2)c1)c1cn2ccccc2n1 | 1.97% | – | –
C=CCOc1cccc(C(=O)N2CCCC(CCC(=O)NCc3ccccc3F)C2)c1 (stereo not given) | -43.2% | 23.1 µM [falling, partial curve] | 32.6 µM [falling, single point]
CCCOC(=O)c1ccc(Oc2c(-c3ccc(OCC)cc3O)n[nH]c2C)cc1 | -91.2% | 18.4 µM [falling, single point] | 23.1 µM [falling, partial curve]
Cc1cccc(NC(=O)c2cccc(C(F)(F)F)c2)c1 | 14.3% | – | –
Cc1cccc(-c2nnc(SCC(=O)Nc3nc4c(s3)CCCC4)n2C)c1 | -17.7% | 20.6 µM [falling, partial curve] | –
Cc1ccc(NC(=O)CC(C(=O)O)c2ccccc2)cc1 (stereo not given) | – | – | 0.82 µM [falling, single point]
CC(OC(=O)CNC(=O)c1cccc(F)c1)C(=O)NC1CCCCC1C (stereo not given) | -42.1% | – | 32.6 µM [falling, partial curve]

SMILES | cell number change | AC50 [1] | AC50 [2]
O=C(Nc1ccc(F)c(F)c1)C1CCCN(S(=O)(=O)c2cnc[nH]2)C1 (stereo not given) | -9.88% | 32.6 µM [falling, single point] | –
COCCn1c(SCC(=O)Nc2ncc(Cl)c(C)c2Cl)nc2ccccc21 | 33.3% | 0.731 µM [rising, full curve, poor fit] | 6.51 µM [rising, full curve, poor fit]
Cc1cccc(OCc2nnc(SCC(=O)N3CCc4ccccc43)n2C)c1 | -18.5% | 29.1 µM [falling, single point] | –
O=C(Nc1ccc(Cl)cc1C(=O)O)c1ccc2c(c1)C(=O)N(Cc1ccco1)C2=O | -23.3% | 0.00461 µM [falling, full curve, poor fit] | –
O=C(CNC(=O)c1ccccc1F)N/N=C/c1ccco1 | 20.6% | 25.9 µM [rising, single point] | –
COc1ccc2c(c1)c(CC(=O)Nc1cc(C)ccc1C)c(C)n2C(=O)c1ccc(Cl)cc1 | 18.4% | 0.58 µM [rising, full curve] | –
Cc1cccc(OCC(=O)NN2C(=O)C3C4C=CC(O4)C3C2=O)c1 (stereo not given) | -4.23% | 32.6 µM [falling, single point] | –
O=C(NCc1ccc(Cl)cc1)N1CCN(Cc2ccccc2)CC1 | -17.2% | 23.1 µM [falling, single point] | –
CSc1ccc(/C=N/N2CCN(Cc3ccc(C)cc3C)CC2)cc1 | -45% | 29.1 µM [falling, single point] | 29.1 µM [falling, single point]
Cc1ccc([N+](=O)[O-])cc1S(=O)(=O)N1CCN(C)CC1 | -1.27% | – | 3.26 µM [falling, single point]
CC1=NNC(=O)C(CC(=O)Nc2ccc(Cl)c(Cl)c2)C1 (stereo not given) | 2.81% | – | 0.651 µM [rising, partial curve, poor fit]
CCCN(CC1CC1)C(=O)CSc1ncnc2sccc12 | 7.57% | – | –
CN1C(=O)c2ccccc2N(C)C1c1cccs1 (stereo not given) | 2.71% | – | –
Cc1cc(NC(=O)c2cccs2)n(-c2nc3ccccc3[nH]2)n1 | -14.6% | – | –
CCOc1ccc(NC(=O)C(CC(=O)O)Cc2ccccc2)cc1 (stereo not given) | -31.2% | 25.9 µM [falling, single point] | 20.6 µM [falling, single point]
O=C(Nc1cccc(-n2cccn2)c1)C1CCCN(Cc2ccc(C#CCCO)cc2)C1 (stereo not given) | 24.6% | 4.61 µM [rising, single point] | –
COc1cc(NS(=O)(=O)c2ccc(Nc3nc(-c4ccccn4)cs3)cc2)nc(OC)n1 | 14.7% | 10.3 µM [rising, partial curve] | –
CN(C)C1=NCCN1CC1CCCCC1 | -16.4% | – | –
Cc1c(OC(C)C(=O)N2C[C@H]3C[C@@H](C2)c2cccc(=O)n2C3)ccc2c3c(c(=O)oc12)CCC3 (stereo not given in full) | -0.324% | 29.1 µM [falling, single point] | –

Laid out differently: entries from further up
SMILES,cell number change,AC50 [1],AC50 [2]
COCCn1c(SCC(=O)Nc2ncc(Cl)c(C)c2Cl)nc2ccccc21,33.3%,"0.731 µM [rising, full curve, poor fit]","6.51 µM [rising, full curve, poor fit]"
Cc1cccc(OCc2nnc(SCC(=O)N3CCc4ccccc43)n2C)c1,-18.5%,"29.1 µM [falling, single point]",–
O=C(Nc1ccc(Cl)cc1C(=O)O)c1ccc2c(c1)C(=O)N(Cc1ccco1)C2=O,-23.3%,"0.00461 µM [falling, full curve, poor fit]",–
O=C(CNC(=O)c1ccccc1F)N/N=C/c1ccco1,20.6%,"25.9 µM [rising, single point]",–
COc1ccc2c(c1)c(CC(=O)Nc1cc(C)ccc1C)c(C)n2C(=O)c1ccc(Cl)cc1,18.4%,"0.58 µM [rising, full curve]",–
Cc1cccc(OCC(=O)NN2C(=O)C3C4C=CC(O4)C3C2=O)c1 (stereo not given),-4.23%,"32.6 µM [falling, single point]",–
O=C(NCc1ccc(Cl)cc1)N1CCN(Cc2ccccc2)CC1,-17.2%,"23.1 µM [falling, single point]",–
CSc1ccc(/C=N/N2CCN(Cc3ccc(C)cc3C)CC2)cc1,-45%,"29.1 µM [falling, single point]","29.1 µM [falling, single point]"
Cc1ccc([N+](=O)[O-])cc1S(=O)(=O)N1CCN(C)CC1,-1.27%,–,"3.26 µM [falling, single point]"
